This assay deals with T1, FLAG-RNF180 (RING finger protein 180) (UniProt Q86T96).
T1 sequence: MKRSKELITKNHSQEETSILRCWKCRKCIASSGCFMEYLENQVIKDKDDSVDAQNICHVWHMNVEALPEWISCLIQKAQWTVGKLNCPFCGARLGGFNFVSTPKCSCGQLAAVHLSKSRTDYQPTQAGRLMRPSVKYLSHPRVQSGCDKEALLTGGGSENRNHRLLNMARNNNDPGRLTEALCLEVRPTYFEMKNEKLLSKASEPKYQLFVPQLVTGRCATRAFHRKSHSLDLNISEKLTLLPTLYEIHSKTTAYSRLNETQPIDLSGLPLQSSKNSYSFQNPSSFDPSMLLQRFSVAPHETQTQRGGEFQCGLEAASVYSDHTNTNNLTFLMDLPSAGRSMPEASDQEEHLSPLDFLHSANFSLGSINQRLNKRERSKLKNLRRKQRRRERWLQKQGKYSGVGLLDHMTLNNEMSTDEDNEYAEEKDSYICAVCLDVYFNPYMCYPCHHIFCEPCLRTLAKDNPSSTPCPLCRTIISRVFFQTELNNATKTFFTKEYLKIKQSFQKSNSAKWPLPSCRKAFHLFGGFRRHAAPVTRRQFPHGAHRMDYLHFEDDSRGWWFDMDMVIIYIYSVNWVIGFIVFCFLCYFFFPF
In words: affinity purification with mass spectrometry; lysate of 293T cells stably expressing FLAG-RNF180 (RIPA: 20 mM Tris pH7.5, 150 mM NaCl, 1% Triton X-100) on anti-FLAG magnetic beads overnight at 4°C; eluted with FLAG peptide, SDS-PAGE, Coomassie, LC/MS.

Results are given in words; binding and its absence hold for the method and conditions named. In cells and extracts the contact can be indirect. These calls come from enrichment with a bait or labelling near it, and not all partners need be listed. Where a sequence is shown, tags or fusion partners need not be part of it.

B1: WNT1 inducible signaling pathway protein 1 (WISP1) (protein, UniProt O95388 23-367)
chain: TALSPAPTTMDFTPAPLEDTSSRPQFCKWPCECPPSPPRCPLGVSLITDGCECCKMCAQQLGDNCTEAAICDPHRGLYCDYSGDRPRYAIGVCAQVVGVGCVLDGVRYNNGQSFQPNCKYNCTCIDGAVGCTPLCLRVRPPRLWCPHPRRVSIPGHCCEQWVCEDDAKRPRKTAPRDTGAFDAVGEVEAWHRNCIAYTSPWSPCSTSCGLGVSTRISNVNAQCWPEQESRLCNLRPCDVDIHTLIKAGKKCLAVYQPEASMNFTLAGCISTRSYQPKYCGVCMDNRCCIPYKSKTIDVSFQCPDGLGFSRQVLWINACFCNLSCRNPNDIFADLESYPDFSEIAN
Consider B1, for which the binding entry is “binds”.
